# Reference: patent publication US8178324B2, “Deracemisation of amines” (Ingenza Limited, priority 2002, dated 2012)
# Sequences of proteins named here, by UniProt entry; tags and fusion partners are left off.
# UniProt P46882, whole entry A300V/L304V/K348M/R450G: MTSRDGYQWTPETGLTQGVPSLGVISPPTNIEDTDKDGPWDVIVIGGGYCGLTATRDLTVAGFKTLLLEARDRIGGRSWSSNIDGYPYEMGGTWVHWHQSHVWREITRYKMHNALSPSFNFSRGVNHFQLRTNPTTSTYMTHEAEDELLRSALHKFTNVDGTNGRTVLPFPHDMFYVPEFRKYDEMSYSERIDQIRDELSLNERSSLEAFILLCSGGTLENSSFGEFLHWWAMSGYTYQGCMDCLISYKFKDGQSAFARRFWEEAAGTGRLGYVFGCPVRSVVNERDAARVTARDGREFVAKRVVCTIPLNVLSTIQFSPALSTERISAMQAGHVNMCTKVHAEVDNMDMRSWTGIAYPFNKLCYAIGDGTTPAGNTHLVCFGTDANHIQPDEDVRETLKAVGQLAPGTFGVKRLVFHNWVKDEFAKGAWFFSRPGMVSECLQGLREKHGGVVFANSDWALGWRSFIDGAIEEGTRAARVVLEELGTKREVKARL
# UniProt P46882, whole entry A300V/L304V/N336S/K348M/R450G: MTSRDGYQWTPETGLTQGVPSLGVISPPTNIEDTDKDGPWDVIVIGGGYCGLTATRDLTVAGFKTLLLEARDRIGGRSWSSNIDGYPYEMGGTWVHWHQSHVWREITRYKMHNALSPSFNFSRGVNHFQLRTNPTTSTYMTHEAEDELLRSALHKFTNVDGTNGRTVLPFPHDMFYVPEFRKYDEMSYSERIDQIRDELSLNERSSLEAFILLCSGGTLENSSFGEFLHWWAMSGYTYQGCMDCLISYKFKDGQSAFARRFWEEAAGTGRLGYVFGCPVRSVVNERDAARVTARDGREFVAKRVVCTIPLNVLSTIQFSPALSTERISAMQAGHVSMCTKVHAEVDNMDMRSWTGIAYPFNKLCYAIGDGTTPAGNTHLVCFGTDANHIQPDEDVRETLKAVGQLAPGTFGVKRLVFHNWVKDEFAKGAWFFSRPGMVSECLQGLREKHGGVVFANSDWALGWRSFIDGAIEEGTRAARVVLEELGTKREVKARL
# At least one compound was matched to its structure with a doubt left.
# Columns and labels:
# [1] = target: T1, wild-type A. niger MAO-N enzyme (Aspergillus niger, UniProt P46882, A300V/K348M/L304V/R450G); assay: Colorimetric hydrogen peroxide (HRP/TBHBA/4-aminoantipyrine) amine oxidase assay, purified wild-type enzyme; type: biochemical
# T1 construct: made in house; host or cells: E. coli BL21(DE3), pET16b
# Protocol: (§1) The wild-type enzyme was also purified by the same protocol and the two enzymes compared for substrate specificity and enantioselectivity.
# 5 ml phosphate buffer (1 M, pH 7.6)
# 500 μl 2,4,6-tribromo-3-hydroxybenzoic acid (2% in DMSO)
# 37.5 μl 4-aminoantipyrine (1.5 M) • 30 μl amine substrate (final concentration 0.015-5 mM) • 44.4 ml water
# Assay Conditions: • 990 μl assay mixture • 5 μl horse radish peroxidase (1 mg·ml^−1) • 10 μl enzyme
# (§2) The spectrophotometer was blanked against assay mixture and HRP. Enzyme was added and the absorbance at 500 nm measured at 3 s intervals for a 10 minute period.
# (§3) The Km values were calculated using ‘KaleidaGraph for Windows’ (Synergy Software). For calculation of the kcat, the active enzyme concentration was determined by estimating the FAD content from the absorbance at 458 nm using an extinction coefficient of 11 mM^−1 cm^−1 (see ref 12).
# [2] = target: T2, mutant A. niger monoamine oxidase (N336S) (Aspergillus niger, UniProt P46882, A300V/K348M/L304V/N336S/R450G); assay: Colorimetric hydrogen peroxide amine oxidase assay, purified mutant enzyme (N336S); type: biochemical
# T2 construct: made in house; host or cells: E. coli BL21(DE3), pET16b
# Protocol: as §1
# The mutated gene was also sequenced and the sequence is shown in SEQ ID NO: 2. There was a single amino acid change from the wild-type enzyme with serine replacing asparagine at position 336.
# LB medium (6×300 ml) containing ampicillin (100 μg·ml^−1) in 1 L baffled flasks was inoculated with a single colony of monoamine oxidase mutant from an LB agar plate. Cultures were incubated at 30° C. for 22 hours (OD600˜3.6) then harvested and washed with phosphate buffer (50 mM, pH 8) to yield a yellow-brown pellet (11.2 g).
# The pellet was resuspended in Tris/HCl buffer (25 mM, pH 7.8, 30 ml) and sonicated on ice (30 s on, 30 s off for 10 minutes). The suspension was then centrifuged (20,000 rpm, 4° C.) until clear supernatant was obtained and the supernatant dialysed against Tris/HCl buffer (25 mM, pH 7.8). […]
# as §2, §3
smiles,measurement,setting,value
"CC(N)c1ccccc1 [L-AMBA, L-α-methylbenzylamine]",selectivity of the wild type enzyme for the L-enantiomer versus D-AMBA,[1],ca. 17:1
same,selectivity of the mutant for the L-enantiomer versus D-AMBA,[2],ca. 100:1
